Laboratory results taken from US6908591B2, “Methods for sterilizing biological materials by irradiation over a temperature gradient” (Clearant, Inc., priority 2002, dated 2005).
For at least one compound, name, drawing or mass did not settle the structure.

Tested on: type I collagen
Assay: Turbidity assay of collagen fibril formation after irradiation (Example 17)
Assay type: biochemical
Details: 45 kGy
Method: Phosphate buffer solution of 40 mM sodium phosphate and 100 mM NaCl; pH=7.66. Methods: […] Following irradiation, the samples were analyzed by SDS-PAGE. Additionally, the samples were diluted 1:2 with water to give collagen concentrations of 0.5 mg/ml and a turbidity assay was performed to detect collagen fibril formation. Collagen fibril formation was initiated by adding 100 μl of phosphate buffer solution. The assay was done in triplicate using a microtiter plate reader at 340 nm wavelength.

Structure (SMILES): NC(N)=S [thiourea]
- fibril formation after irradiation (turbidity assay): could form fibrils after irradiation
- fibril formation after irradiation (turbidity assay) (irradiated at -80° C.): could form fibrils after irradiation
